Results taken from article PMC11334333.
Where two headings read alike, the source gives them in different places. No constants are given. Whether binding was seen depends on the method and setting. In cells and extracts the contact can be indirect. These calls come from enrichment with a bait or labelling near it, and not all partners need be listed. Sequences can lack the tags named with a protein.

By UniProt entry, the sequences of proteins in these tests, tags left out. Residues count along the entry.
UniProt Q9Y2J2: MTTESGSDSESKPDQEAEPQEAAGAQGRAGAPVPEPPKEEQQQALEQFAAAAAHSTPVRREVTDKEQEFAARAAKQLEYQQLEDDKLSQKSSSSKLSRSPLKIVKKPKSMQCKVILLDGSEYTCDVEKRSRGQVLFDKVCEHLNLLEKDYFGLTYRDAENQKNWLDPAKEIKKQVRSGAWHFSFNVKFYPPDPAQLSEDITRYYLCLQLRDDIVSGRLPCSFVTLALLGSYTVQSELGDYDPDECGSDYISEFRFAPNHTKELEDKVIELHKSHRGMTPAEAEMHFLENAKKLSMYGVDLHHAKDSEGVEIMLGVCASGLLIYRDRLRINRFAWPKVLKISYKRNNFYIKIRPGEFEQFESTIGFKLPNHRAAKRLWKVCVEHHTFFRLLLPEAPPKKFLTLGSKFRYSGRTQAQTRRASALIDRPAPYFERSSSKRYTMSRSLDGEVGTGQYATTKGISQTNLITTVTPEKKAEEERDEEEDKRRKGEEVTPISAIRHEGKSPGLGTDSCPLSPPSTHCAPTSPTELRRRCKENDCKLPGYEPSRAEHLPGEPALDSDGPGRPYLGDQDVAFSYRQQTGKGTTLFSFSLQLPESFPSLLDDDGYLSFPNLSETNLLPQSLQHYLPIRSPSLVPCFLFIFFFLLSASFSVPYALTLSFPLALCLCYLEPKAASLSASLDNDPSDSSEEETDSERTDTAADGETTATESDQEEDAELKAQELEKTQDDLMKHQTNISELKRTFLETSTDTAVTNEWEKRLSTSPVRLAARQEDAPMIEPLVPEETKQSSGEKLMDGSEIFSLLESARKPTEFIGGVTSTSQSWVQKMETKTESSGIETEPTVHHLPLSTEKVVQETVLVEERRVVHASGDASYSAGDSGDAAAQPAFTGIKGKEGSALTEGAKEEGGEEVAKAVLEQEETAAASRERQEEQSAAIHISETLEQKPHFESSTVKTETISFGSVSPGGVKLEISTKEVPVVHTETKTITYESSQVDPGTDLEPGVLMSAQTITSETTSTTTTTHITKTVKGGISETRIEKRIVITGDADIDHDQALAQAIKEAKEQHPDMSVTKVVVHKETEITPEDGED
UniProt O43491: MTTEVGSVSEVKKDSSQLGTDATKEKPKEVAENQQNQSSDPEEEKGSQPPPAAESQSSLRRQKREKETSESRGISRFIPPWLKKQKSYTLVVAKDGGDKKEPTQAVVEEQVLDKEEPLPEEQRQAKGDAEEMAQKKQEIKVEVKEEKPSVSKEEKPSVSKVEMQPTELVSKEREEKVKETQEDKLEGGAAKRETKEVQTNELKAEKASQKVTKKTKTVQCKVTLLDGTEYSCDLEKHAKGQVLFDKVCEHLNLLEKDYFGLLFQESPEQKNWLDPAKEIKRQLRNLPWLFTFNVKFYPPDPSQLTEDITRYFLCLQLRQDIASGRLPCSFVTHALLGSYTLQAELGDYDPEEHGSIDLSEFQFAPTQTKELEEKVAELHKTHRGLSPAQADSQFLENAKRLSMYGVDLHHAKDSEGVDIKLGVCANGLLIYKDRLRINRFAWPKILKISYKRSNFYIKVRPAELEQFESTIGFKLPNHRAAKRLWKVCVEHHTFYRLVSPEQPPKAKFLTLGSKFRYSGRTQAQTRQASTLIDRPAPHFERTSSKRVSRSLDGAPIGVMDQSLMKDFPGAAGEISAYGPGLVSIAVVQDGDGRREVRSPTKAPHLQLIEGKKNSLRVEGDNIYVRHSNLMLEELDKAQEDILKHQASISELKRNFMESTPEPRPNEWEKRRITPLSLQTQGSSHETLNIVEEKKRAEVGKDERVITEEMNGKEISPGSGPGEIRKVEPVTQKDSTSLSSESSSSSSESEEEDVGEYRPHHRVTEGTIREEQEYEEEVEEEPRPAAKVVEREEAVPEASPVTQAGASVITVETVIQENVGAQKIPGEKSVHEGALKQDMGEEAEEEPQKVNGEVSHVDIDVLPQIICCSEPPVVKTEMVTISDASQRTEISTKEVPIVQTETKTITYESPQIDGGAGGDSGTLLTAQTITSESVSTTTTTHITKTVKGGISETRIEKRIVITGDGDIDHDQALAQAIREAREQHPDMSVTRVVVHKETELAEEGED
UniProt Q14126, residues 50-1118: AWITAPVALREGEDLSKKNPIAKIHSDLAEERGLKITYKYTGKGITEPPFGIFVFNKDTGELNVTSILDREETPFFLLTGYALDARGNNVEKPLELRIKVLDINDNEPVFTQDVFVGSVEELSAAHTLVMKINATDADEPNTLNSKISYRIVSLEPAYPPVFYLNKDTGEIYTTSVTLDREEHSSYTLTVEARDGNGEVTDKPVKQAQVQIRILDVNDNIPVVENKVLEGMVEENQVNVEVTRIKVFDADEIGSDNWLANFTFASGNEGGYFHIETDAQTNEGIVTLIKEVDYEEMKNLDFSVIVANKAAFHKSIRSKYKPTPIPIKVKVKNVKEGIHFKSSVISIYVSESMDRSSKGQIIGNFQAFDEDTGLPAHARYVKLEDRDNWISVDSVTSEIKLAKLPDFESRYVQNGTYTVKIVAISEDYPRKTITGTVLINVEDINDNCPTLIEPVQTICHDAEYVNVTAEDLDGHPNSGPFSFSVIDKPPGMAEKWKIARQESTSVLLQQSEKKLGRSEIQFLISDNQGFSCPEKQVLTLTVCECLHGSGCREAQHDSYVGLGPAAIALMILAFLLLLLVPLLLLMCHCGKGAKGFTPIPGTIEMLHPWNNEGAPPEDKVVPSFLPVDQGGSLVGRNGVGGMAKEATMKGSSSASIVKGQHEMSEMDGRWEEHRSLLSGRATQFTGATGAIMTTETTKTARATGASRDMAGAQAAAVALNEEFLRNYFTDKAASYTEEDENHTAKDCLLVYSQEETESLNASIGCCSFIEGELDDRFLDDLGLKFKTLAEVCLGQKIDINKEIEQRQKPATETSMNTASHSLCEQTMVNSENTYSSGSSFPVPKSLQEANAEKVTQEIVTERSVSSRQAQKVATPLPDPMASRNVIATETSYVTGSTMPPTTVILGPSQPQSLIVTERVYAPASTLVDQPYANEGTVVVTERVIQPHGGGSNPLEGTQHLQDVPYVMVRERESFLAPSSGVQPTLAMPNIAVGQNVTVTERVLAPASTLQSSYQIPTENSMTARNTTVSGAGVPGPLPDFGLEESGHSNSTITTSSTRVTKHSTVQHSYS

Assays:
Assay in all cases: proximity labelling; APEX2 proximity biotinylation in transfected HEK293 cells (500 μM biotin tyramide 1 h, 1 mM H2O2 1 min); streptavidin beads; LC MS/MS with label-free quantitation in triplicate; data of the three constructs with a.a. 414–630 grouped and compared with controls lacking that …
[1] = target: T1, TMEM24-APEX2-eGFP (human) (UniProt O14523)
T1 sequence: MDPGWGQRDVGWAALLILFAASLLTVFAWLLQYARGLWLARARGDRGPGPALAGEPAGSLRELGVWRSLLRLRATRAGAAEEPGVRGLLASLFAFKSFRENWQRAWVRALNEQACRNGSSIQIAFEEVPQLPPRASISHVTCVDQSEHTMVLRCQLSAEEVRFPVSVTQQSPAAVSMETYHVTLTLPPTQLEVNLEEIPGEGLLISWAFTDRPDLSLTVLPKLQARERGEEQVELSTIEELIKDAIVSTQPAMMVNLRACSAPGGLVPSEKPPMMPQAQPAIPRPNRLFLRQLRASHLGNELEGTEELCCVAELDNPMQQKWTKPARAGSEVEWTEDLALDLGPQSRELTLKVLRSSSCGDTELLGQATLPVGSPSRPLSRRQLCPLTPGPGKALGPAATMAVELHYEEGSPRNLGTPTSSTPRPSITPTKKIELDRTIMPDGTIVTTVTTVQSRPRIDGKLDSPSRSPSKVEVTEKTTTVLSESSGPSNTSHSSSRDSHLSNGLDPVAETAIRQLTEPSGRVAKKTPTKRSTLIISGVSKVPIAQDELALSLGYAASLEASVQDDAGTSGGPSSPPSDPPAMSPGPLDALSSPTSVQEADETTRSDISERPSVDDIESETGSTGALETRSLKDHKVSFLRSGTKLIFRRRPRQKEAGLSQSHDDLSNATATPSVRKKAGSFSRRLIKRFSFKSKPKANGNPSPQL

[2] = target: T2, TMEM24(1–666)-APEX2-eGFP (human) (UniProt O14523)
T2 sequence: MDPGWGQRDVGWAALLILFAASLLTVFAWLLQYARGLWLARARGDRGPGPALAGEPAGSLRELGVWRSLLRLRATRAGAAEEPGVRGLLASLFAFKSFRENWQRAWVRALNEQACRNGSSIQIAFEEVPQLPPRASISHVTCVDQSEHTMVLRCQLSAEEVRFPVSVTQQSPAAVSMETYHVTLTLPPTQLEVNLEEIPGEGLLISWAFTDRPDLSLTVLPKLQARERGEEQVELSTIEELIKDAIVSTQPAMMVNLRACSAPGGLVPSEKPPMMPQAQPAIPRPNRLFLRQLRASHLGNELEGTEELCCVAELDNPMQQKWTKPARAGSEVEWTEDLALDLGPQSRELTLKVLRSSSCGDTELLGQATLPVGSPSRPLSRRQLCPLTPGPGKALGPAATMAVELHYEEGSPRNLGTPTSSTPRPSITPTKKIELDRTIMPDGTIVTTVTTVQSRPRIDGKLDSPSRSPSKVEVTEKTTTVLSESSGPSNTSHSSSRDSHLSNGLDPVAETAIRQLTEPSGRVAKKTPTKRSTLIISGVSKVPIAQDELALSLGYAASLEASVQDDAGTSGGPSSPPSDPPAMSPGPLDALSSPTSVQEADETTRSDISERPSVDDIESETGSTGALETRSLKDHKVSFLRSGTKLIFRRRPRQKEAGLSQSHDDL

[3] = target: T3, TMEM24(1–630)-APEX2-eGFP (human) (UniProt O14523)
T3 sequence: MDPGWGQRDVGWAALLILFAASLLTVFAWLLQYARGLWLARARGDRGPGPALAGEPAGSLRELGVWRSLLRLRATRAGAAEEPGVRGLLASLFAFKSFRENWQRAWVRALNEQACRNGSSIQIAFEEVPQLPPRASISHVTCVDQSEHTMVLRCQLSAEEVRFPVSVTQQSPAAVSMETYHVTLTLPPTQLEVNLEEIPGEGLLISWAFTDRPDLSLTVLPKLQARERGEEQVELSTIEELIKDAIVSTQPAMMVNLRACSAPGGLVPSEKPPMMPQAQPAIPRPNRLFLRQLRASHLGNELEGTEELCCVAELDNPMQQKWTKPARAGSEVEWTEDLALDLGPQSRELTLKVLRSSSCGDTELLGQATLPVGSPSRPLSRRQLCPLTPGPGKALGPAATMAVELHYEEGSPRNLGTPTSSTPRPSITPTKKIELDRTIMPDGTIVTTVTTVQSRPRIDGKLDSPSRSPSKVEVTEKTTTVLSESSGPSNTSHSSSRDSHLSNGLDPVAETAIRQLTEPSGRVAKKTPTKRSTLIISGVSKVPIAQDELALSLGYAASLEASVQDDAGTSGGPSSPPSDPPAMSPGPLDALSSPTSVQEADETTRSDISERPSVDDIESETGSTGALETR

[4] = target: T1, TMEM24-APEX2-eGFP (human); remark: listed apart in the source
[5] = target: T2, TMEM24(1–666)-APEX2-eGFP (human); remark: listed apart in the source
[6] = target: T3, TMEM24(1–630)-APEX2-eGFP (human); remark: listed apart in the source

Measured: binding

4.1B (endogenous) (from UniProt Q9Y2J2 1-1087)
binds: [1] | [2] | [3]

4.1G (endogenous) (from UniProt O43491 1-1005)
binds: [1] | [2] | [3]

desmoglien-2 (DSG-2) (from UniProt Q14126 50-1118)
binds: [1] | [2] | [3]

B1: MPP1 (protein, UniProt Q00013 1-466)
chain: MTLKASEGESGGSMHTALSDLYLEHLLQKRSRPEAVSHPLNTVTEDMYTNGSPAPGSPAQVKGQEVRKVRLIQFEKVTEEPMGITLKLNEKQSCTVARILHGGMIHRQGSLHVGDEILEINGTNVTNHSVDQLQKAMKETKGMISLKVIPNQQSRLPALQMFMRAQFDYDPKKDNLIPCKEAGLKFATGDIIQIINKDDSNWWQGRVEGSSKESAGLIPSPELQEWRVASMAQSAPSEAPSCSPFGKKKKYKDKYLAKHSSIFDQLDVVSYEEVVRLPAFKRKTLVLIGASGVGRSHIKNALLSQNPEKFVYPVPYTTRPPRKSEEDGKEYHFISTEEMTRNISANEFLEFGSYQGNMFGTKFETVHQIHKQNKIAILDIEPQTLKIVRTAELSPFIVFIAPTDQGTQTEALQQLQKDSEAIRSQYAHYFDLSLVNNGVDETLKKLQEAFDQACSSPQWVPVSWVY
binds: [4] | [5] | [6]
